Data source: PubChem BioAssay AID1259405 (NCATS, 2018)
The deposit covers about 50,000 reagents; below is a random part of them. Over the whole deposit, about 4,000 (8%) got an active call. 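Mouse siRNA library applied to hamster cells; one well for each siRNA.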 Entries without a mark were called inactive. Reagents against one gene are numbered here. No sequences are given here.

- Aim: 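Knock-downs that lift recombinant protein yield in hamster ovary cells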 (primary screen)
- System: Chinese hamster CHO-K1 ovary cells with stable secreted eGFP expression
- Knock-down reagent: single siRNA against mouse genes, 0.8 pmol siRNA per well (2 µl of 400 nM stock)
- Timing: 3 days
- Detection: 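Percent of the per-plate non-targeting control median for intracellular GFP per well by laser scanning cytometry and for cell viability by ATP luminescence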
- Reading the numbers: GFP, % of control: higher = more GFP per well, higher productivity; viability (ATP), % of control: higher = more viable cells (more ATP)
- Rule for the call: 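Called active when intracellular GFP, relative to negative control, is at or above 120%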

After knock-down of 2900005J15Rik (GeneID 67261) #1, the screen gave GFP, % of control 48.2; viability (ATP), % of control 49.5.
2900005J15Rik (GeneID 67261) #2 gave GFP, % of control 58.5; viability (ATP), % of control 64.1.
Knock-down of 2900005J15Rik (GeneID 67261) #3 resulted in: GFP, % of control 84; viability (ATP), % of control 74.1.
Or5aq1 (GeneID 258765) #1 showed GFP, % of control 95; viability (ATP), % of control 55.1.
Or5aq1 (GeneID 258765) #2 scored GFP, % of control 74; viability (ATP), % of control 75.1.
Silencing of Or5aq1 (GeneID 258765) #3 gave: GFP, % of control 88.3; viability (ATP), % of control 74.5.

A run of entries taken from the entries so far, as a working copy:
2900005J15Rik (GeneID 67261) #3 → GFP, % of control = 84; viability (ATP), % of control = 74.1
Or5aq1 (GeneID 258765) #1 → GFP, % of control = 95; viability (ATP), % of control = 55.1
Or5aq1 (GeneID 258765) #2 → GFP, % of control = 74; viability (ATP), % of control = 75.1

Additional results follow:
Mab21l2 (GeneID 23937) #1 showed GFP, % of control 76.9; viability (ATP), % of control 76.7.
For Mab21l2 (GeneID 23937) #2 the deposit lists GFP, % of control 59.6; viability (ATP), % of control 23.8.
Knock-down of Mab21l2 (GeneID 23937) #3 gave: GFP, % of control 65.3; viability (ATP), % of control 67.4.
Knock-down of Emc6 (GeneID 66048) #1 resulted in: GFP, % of control 69.5; viability (ATP), % of control 80.5.
Emc6 (GeneID 66048) #2 gave GFP, % of control 132 (active); viability (ATP), % of control 73.8.
Emc6 (GeneID 66048) #3 showed GFP, % of control 92.2; viability (ATP), % of control 80.1.
Cage1 (GeneID 71213) #1 gave GFP, % of control 111; viability (ATP), % of control 59.2.
Cage1 (GeneID 71213) #2 gave GFP, % of control 106; viability (ATP), % of control 65.6.
Silencing of Cage1 (GeneID 71213) #3 gave: GFP, % of control 93.7; viability (ATP), % of control 103.
Depletion of Stk39 (GeneID 53416) #1 resulted in: GFP, % of control 107; viability (ATP), % of control 106.
Knock-down of Stk39 (GeneID 53416) #2 resulted in: GFP, % of control 77.4; viability (ATP), % of control 71.8.
With knock-down of Stk39 (GeneID 53416) #3 the results were GFP, % of control 69.7; viability (ATP), % of control 71.2.
